Laboratory results from patent US4265884A, “Therapeutically active polypeptides or acid addition salts thereof and a process for producing such compounds” (Nordisk Insulinlaboratorium, priority 1978, dated 1981).
At least one peptide structure holds a part that was inferred or is arguable (an end, a ring closure or a residue). Where a SMILES comes first, the peptide text is derived from it. [ ]: non-standard residue; d: D form. pGlu = O=C1CC[C@@H](C(=O)O)N1

Tested on: Langerhans's islets
Test: In vitro glucose stimulated insulin secretion from isolated Langerhans's islets
Assay type: cell-based
Details: hydrochloride, with 10 mM glucose, isolated islets preincubated 24 hours at 37° C
Experimental: In vitro determination of the effect or the peptides on the glucose stimulated insulin secretion was carried out on Langerhans's islets isolated by collagenase technique and preincubated 24 hours at 37° C. Secretion tests were conducted with 10 mM of glucose and three peptide concentrations.
All peptides have been tested in the form of their hydrochlorides together with 10 mmolar glucose, and the value is calculated as a percentage of the effect of 10 mmolar glucose alone.

COC(=O)[C@H](CC(C)C)NC(=O)[C@H](CCCNC(=N)N)NC(=O)[C@@H]1CCC(=O)N1 [Peptide 2] ([pGlu]-Arg-Leu-OMe)
glucose stimulated insulin secretion, percentage of the effect of 10 mmolar glucose alone (peptide 5mM): 252%
glucose stimulated insulin secretion, percentage of the effect of 10 mmolar glucose alone (peptide 5 × 10^-1 mM): 132%
glucose stimulated insulin secretion, percentage of the effect of 10 mmolar glucose alone (peptide 5 × 10^-2 mM): 122%
